The experiment is described as follows: qHTS Assay to Find Inhibitors of Chronic Active B-Cell Receptor Signaling. The following applies: ABC-DLBCL IkBa-CBG/CBR reporter, luminescence ratio (green luciferase fused to IkBa over red control in TMD8 lymphoma cells), 4 h. The essentials:
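TMD8 human ABC-DLBCL cells with doxycycline-inducible IκBα–green luciferase fusion and unfused red luciferase, in 0.5% FBS medium; compounds up to 46 uM, 4 h at 37C. Green/red luminescence ratio, filter-overlap corrected, fitted to concentration-response curves.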

Setting [1] is: measured here: CBR red luminescence, cell number.
The mark [2] stands for this setting: measured here: IkBa-CBG green luminescence.

The list shows a part of the results. Further columns of the screen follow, without active or inactive calls. The list favours compounds with an active or inconclusive main result. Potencies come from curve fits of mixed quality, noted in brackets.

For orientation: AC50 means the concentration at which the activity in the assay is half-maximal.

As for `COc1cc2c(cc1OC)C1(C)N(CC2)C(C(C)=O)=NN1c1ccc(Cl)cc1` (configuration not stated), the concentration at half-maximal activity (AC50) under setting [1] is 35.5 µM [falling, single point].

As for `COc1ccc(C2(C)NC(=O)N(CC(=O)c3cc(C)n(C4CC4)c3C)C2=O)cc1` (configuration not stated), the half-maximal activity concentration (AC50) under setting [1] was 20.6 µM [rising, single point].

As for `CCOC(=O)C1(CCCc2ccccc2)CCN(C2CCSCC2)CC1`, the AC50 was 35.5 µM [rising, single point] under setting [1] and 35.5 µM [falling, single point] under setting [2].

Turning to `CC(=O)Nc1ccc(S(=O)(=O)Nc2cc(C)ccn2)cc1`, the AC50 under setting [1] is 35.5 µM [falling, single point].

`O=c1c2oc3nc4c(cc3c2ncn1CCCc1ccccc1)CCCC4`: the AC50 under setting [1] is 17.8 µM [rising, partial curve, poor fit].

`CCCn1cc(CN2CCN(Cc3ccc(C)o3)C(CCO)C2)c(C)n1` (configuration not stated): the concentration at half-maximal activity (AC50) under setting [1] was 10 µM [rising, partial curve, poor fit].

Turning to `CC1CCN(Cc2cc(=O)oc3cc4c(cc23)CCCC4)CC1`, under setting [1], the AC50 was 20 µM [rising, partial curve, poor fit].

For `COC(=O)N/N=C/c1cn(Cc2c(Cl)cccc2Cl)c2ccccc12`, under setting [1], the concentration at half-maximal activity (AC50) is 29.1 µM [falling, single point].

Turning to `CCc1ccc(CCC(=O)Nc2nccs2)o1`, the AC50 under setting [1] is 18.4 µM [falling, partial curve].

On to `O=C(Nc1ccc(N2CCCCC2)cc1)c1cc(S(=O)(=O)N2CCOCC2)ccc1F`, for which, under setting [1], the AC50 is 7.31 µM [falling, partial curve, poor fit].

Take `Cc1nc(C(=O)NC2CCOCC2)sc1C1(C)CC(c2cccc([N+](=O)[O-])c2)=NO1` (configuration not stated): the AC50 under setting [1] was 0.708 µM [rising, full curve, poor fit].

In the case of `Cc1sc2nc(SCC(=O)NCc3ccco3)n(Cc3ccccc3)c(=O)c2c1C`, the AC50 under setting [1] was 18.4 µM [falling, single point].

In the case of `O=C(COC(=O)c1ccc(F)c(S(=O)(=O)N2CCOCC2)c1)NCCc1ccc(F)cc1`, the half-maximal activity concentration (AC50) under setting [1] was 18.4 µM [falling, single point].

Regarding `O=C(CSc1nc2ccc(NC(=O)c3ccccc3C(=O)O)cc2s1)Nc1ccc(F)c([N+](=O)[O-])c1`, the AC50 under setting [1] is 11.2 µM [falling, single point].

As to `CCc1nc2ccc(C(=O)N(C)CC(=O)Nc3ccccc3C(F)(F)F)cc2nc1CC`, the AC50 under setting [1] is 2.06 µM [rising, partial curve, poor fit].

For `CCOC(=O)C(NC(C)=O)(Nc1ccc(S(=O)(=O)Nc2onc(C)c2C)cc1)C(F)(F)F` (configuration not stated), the AC50 under setting [1] was 6.51 µM [rising, full curve, poor fit].

Consider `CSCCNCc1cn(-c2ccc(F)cc2F)nc1-c1ccccc1C`, for which the AC50 under setting [1] is 0.178 µM [rising, full curve, poor fit].

As for `COC(=O)Cc1cc(=O)n2[nH]c(C)cc2n1`, the AC50 under setting [1] was 7.31 µM [falling, single point].

In the case of `CNC(=O)c1sc2nc(-c3ccc(OC)cc3)cn2c1C`, under setting [1], the concentration at half-maximal activity (AC50) was 0.58 µM [rising, full curve, poor fit].

Regarding `Cc1cccc(C(=O)NCC(=O)OCC(=O)N2CCCCC2)c1`, under setting [1], the AC50 is 35.5 µM [rising, single point].

`Cc1ccc(-c2cccc(CN3CCN(C(C)C)C(CCO)C3)c2)o1` (configuration not stated): the AC50 under setting [1] is 7.94 µM [rising, partial curve, poor fit].

As for `Cc1ccc(S(=O)(=O)Nc2nc3ccccc3s2)cc1`, under setting [1], the AC50 is 20.6 µM [rising, single point].

With `C/C(=N\Nc1nc(C(C)(C)C)cs1)c1ccccc1`, under setting [1], the AC50 is 31.6 µM [falling, single point].

Take `CC/C=C/C(=O)N1CC2(CC(c3cccc(NC(=O)c4ccccc4)c3)=NO2)C[C@@H]1C(N)=O` (some centres not stated): the AC50 under setting [1] was 15.8 µM [falling, single point].

On to `NC(=O)c1ccsc1NC(=O)c1coc2ccccc2c1=O`, for which, under setting [1], the half-maximal activity concentration (AC50) was 0.562 µM [rising, full curve, poor fit].

On to `CCOC(=O)C1CCN(Cc2c(O)ccc3ccccc23)CC1`, for which the AC50 under setting [2] was 23.1 µM [rising, partial curve, poor fit].

As for `CCSCc1nc(N)nc(NCCc2ccccc2)n1`, the AC50 under setting [1] is 35.5 µM [falling, single point].

`NC(=O)C1CC(=O)N(c2ccc(OCc3ccc(Cl)cc3Cl)cc2)C1` (configuration not stated): the AC50 under setting [1] was 6.31 µM [rising, single point].

As for `COC(=O)Nc1nc(-c2ccccc2)c(C(=O)c2ccc(Cl)cc2)s1`, the AC50 under setting [1] is 5.17 µM [rising, single point] and the AC50 under setting [2] is 3.26 µM [falling, partial curve, poor fit].

As to `O=c1[nH]c(=O)c2nnc(N/N=C\c3ccc(O)cc3)nc2[nH]1`, the AC50 under setting [1] was 35.5 µM [falling, single point].

As to `CCc1cccc(NC(=O)CCCSc2nc3ccccc3[nH]2)c1`, the half-maximal activity concentration (AC50) under setting [1] was 20.6 µM [falling, partial curve, poor fit].

In the case of `COc1ccc(C(=O)Nc2ccc(C(=O)OCC(=O)c3cccc4ccccc34)cc2)cc1`, the AC50 under setting [1] is 4.11 µM [falling, full curve, poor fit].

For `O=C(/C=C/c1ccccc1)Nc1cc(S(=O)(=O)N2CCOCC2)ccc1N1CCCC1`, the AC50 under setting [1] was 0.13 µM [rising, full curve, poor fit].

For the compound `Cc1cccc(NC(=S)Nc2ccc(Br)cc2)c1`, the AC50 under setting [1] was 5.62 µM [rising, single point].

Consider `COc1ccc2oc(=O)c(-c3csc(Nc4cccc(O)c4)n3)cc2c1`, for which the AC50 under setting [1] is 5.17 µM [falling, partial curve, poor fit].

Regarding `COc1cc(C2C(C#N)=C(N)N(Nc3ccccc3)C3=C2C(=O)CC(C)(C)C3)ccc1OCc1cccc(F)c1` (configuration not stated), under setting [1], the AC50 was 7.08 µM [falling, partial curve].

Turning to `O=C(NNc1ccc([N+](=O)[O-])cc1)C1C2CCCCC21` (configuration not stated), the AC50 under setting [1] is 20.6 µM [rising, partial curve, poor fit].

For the compound `CC(C)n1nccc1NC(=O)COC(=O)c1ccc(NC(N)=O)cc1`, the AC50 under setting [1] was 25.9 µM [rising, single point].

For the compound `COc1ccc(S(=O)(=O)Nc2nnc(C(C)C)s2)cc1`, the AC50 under setting [1] is 2.59 µM [rising, single point].

On to `CC1CCCCN1C(=O)Cn1c(=O)oc2cc(S(=O)(=O)N3CCCC3)ccc21` (configuration not stated), for which, under setting [1], the AC50 was 5.01 µM [falling, single point].
